Results on one sequence are retold here after US20030148283.

Amino acid sequences for entries named in this document (tags omitted). A change or cut given only in a name is not applied to a line headed by its entry.
UniProt Q9X2H9: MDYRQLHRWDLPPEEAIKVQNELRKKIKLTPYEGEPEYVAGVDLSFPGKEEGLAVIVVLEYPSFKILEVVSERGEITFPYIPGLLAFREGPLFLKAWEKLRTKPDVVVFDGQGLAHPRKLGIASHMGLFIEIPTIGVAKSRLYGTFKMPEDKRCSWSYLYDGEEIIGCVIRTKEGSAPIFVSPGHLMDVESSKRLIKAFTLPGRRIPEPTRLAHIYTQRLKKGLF

Data set [1] deals with T1, Tma endonuclease V D105A (Thermotoga maritima) (UniProt Q9X2H9).
T1 sequence: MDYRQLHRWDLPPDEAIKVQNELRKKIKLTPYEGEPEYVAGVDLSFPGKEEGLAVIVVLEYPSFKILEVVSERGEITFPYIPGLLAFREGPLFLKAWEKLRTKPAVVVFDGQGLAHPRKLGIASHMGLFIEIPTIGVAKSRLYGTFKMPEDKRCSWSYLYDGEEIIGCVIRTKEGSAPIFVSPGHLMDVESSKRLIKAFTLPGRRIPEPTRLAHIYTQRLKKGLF
In words: EMSA. The note with it: deoxyinosine in top strand [26 (deoxyinosine, top strand, written as G; A opposite in bottom strand)], purified recombinant protein, label: 5'-FAM top, 5'-TET bottom, letters built from the parent sequence and the stated change. Background: A gel shift assay detects complexes by their altered migration in electrophoresis.

For data set [2], the target named is T2, Tma endonuclease V D43A (Thermotoga maritima) (UniProt Q9X2H9).
T2 sequence: T1 sequence with D43A, A105D
In words: EMSA. The note with it: deoxyinosine in top strand [26 (deoxyinosine, top strand, written as G; A opposite in bottom strand)], purified recombinant protein, label: 5'-FAM top, 5'-TET bottom, letters built from the parent sequence and the stated change.

The target in data set [3] is T3, Tma endonuclease V (wild type) (Thermotoga maritima) (UniProt Q9X2H9).
T3 sequence: T1 sequence with A105D
In words: EMSA. The note with it: deoxyinosine in top strand [26 (deoxyinosine, top strand, written as G; A opposite in bottom strand)], purified recombinant protein, label: 5'-FAM top, 5'-TET bottom.

In data set [4] the target is T4, Tma endonuclease V H116A (Thermotoga maritima) (UniProt Q9X2H9).
T4 sequence: T1 sequence with A105D, H116A
In words: EMSA. The note with it: deoxyinosine in top strand [26 (deoxyinosine, top strand, written as G; A opposite in bottom strand)], purified recombinant protein, label: 5'-FAM top, 5'-TET bottom, letters built from the parent sequence and the stated change.

Data set [5] deals with T5, Tma endonuclease V H125A (Thermotoga maritima) (UniProt Q9X2H9).
T5 sequence: T1 sequence with A105D, H125A
Description: EMSA. The settings on record: deoxyinosine in top strand [26 (deoxyinosine, top strand, written as G; A opposite in bottom strand)], purified recombinant protein, label: 5'-FAM top, 5'-TET bottom, letters built from the parent sequence and the stated change.

Data set [6] deals with T6, Tma endonuclease V E89A (Thermotoga maritima) (UniProt Q9X2H9).
T6 sequence: T1 sequence with E89A, A105D
In words: EMSA. The settings on record: deoxyinosine in top strand [26 (deoxyinosine, top strand, written as G; A opposite in bottom strand)], purified recombinant protein, label: 5'-FAM top, 5'-TET bottom, letters built from the parent sequence and the stated change.

In data set [7] the target is T7, Tma endonuclease V K139A (Thermotoga maritima) (UniProt Q9X2H9).
T7 sequence: T1 sequence with A105D, K139A
In words: EMSA. The note with it: deoxyinosine in top strand [26 (deoxyinosine, top strand, written as G; A opposite in bottom strand)], purified recombinant protein, label: 5'-FAM top, 5'-TET bottom, letters built from the parent sequence and the stated change.

In data set [8] the target is T8, Tma endonuclease V Y80A (Thermotoga maritima) (UniProt Q9X2H9).
T8 sequence: T1 sequence with Y80A, A105D
In words: EMSA. The settings on record: deoxyinosine in top strand [26 (deoxyinosine, top strand, written as G; A opposite in bottom strand)], purified recombinant protein, label: 5'-FAM top, 5'-TET bottom, letters built from the parent sequence and the stated change.

For data set [9], the target named is T9, Tma endonuclease V D110A (Thermotoga maritima) (UniProt Q9X2H9).
T9 sequence: T1 sequence with A105D, D110A
In words: EMSA. The settings on record: deoxyinosine in top strand [26 (deoxyinosine, top strand, written as G; A opposite in bottom strand)], purified recombinant protein, label: 5'-FAM top, 5'-TET bottom, letters built from the parent sequence and the stated change.

The target in data set [10] is T10, Tma endonuclease V R88A (Thermotoga maritima) (UniProt Q9X2H9).
T10 sequence: T1 sequence with R88A, A105D
Description: EMSA. The note with it: deoxyinosine in top strand [26 (deoxyinosine, top strand, written as G; A opposite in bottom strand)], purified recombinant protein, label: 5'-FAM top, 5'-TET bottom, letters built from the parent sequence and the stated change.

The target of data set [11] is T8, Tma endonuclease V Y80A (Thermotoga maritima). Description: enzyme reaction in vitro. The settings on record: deoxyinosine in top strand [26 (deoxyinosine, top strand, written as G; A opposite in bottom strand)]; apparent first order rate, E:S 1:10, 5 mM MgCl2; purified recombinant protein; label: 5'-FAM top, 5'-TET bottom; letters built from the parent sequence and the stated change.

Residue numbers refer to the chain shown, from its start. For part of these data: No signal at the amounts used counts as a negative. Where a protein sequence is shown, tags need not be part of it. For part of these data: The exact form of at least one protein or probe is not confirmed. For part of these data: Weaker means in comparison with the reference protein, sequence or condition of that experiment.

Consider “TACCCGAGCGTCTGCGGTGTTGCGTGAGTTGTCATAGTTTGATCCTCTAGTCTTGTTGCGGGTTCC (double strand) [I/A inosine duplex]”, for which the binding result in [1] (2 mM EDTA) is recorded as “binds more weakly”; in [1] (5 mM CaCl2, ++ in MgCl2, wt cleavage), “binds”; in data set [2] (2 mM EDTA, no metal) it was “binds”; in data set [2] (5 mM CaCl2, ++ also in MgCl2, no cleavage) it was “binds”; in data set [3] (2 mM EDTA, no metal, text: no stable complex, letters built from the parent sequence and the stated change), “binds more weakly”; in data set [3] (5 mM CaCl2, 65 C, ++ also in MgCl2, letters built from the parent sequence and the stated …) it was “binds”. The binding result in data set [4] (2 mM EDTA) is recorded as “no binding”; in data set [4] (5 mM CaCl2, ++ in MgCl2, text: reduced affinity), “binds more weakly”; in data set [5] (2 mM EDTA), “no binding”; in [5] (5 mM CaCl2, +++ in MgCl2), “binds”; in data set [6] (2 mM EDTA), “binds”; in data set [6] (5 mM CaCl2, - in MgCl2, cleavage weak), “binds”. For the same sequence, the binding result is “no binding” in data set [7] (2 mM EDTA); “binds” in data set [7] (5 mM CaCl2, +++ in MgCl2); “no binding” in [8] (2 mM EDTA); “no binding” in data set [8] (5 mM CaCl2, - also in MgCl2, text: reduced affinity, still cleaves (++)); “binds” in data set [9] (2 mM EDTA); “binds” in data set [9] (5 mM CaCl2, ++ in MgCl2, no cleavage). The binding result is on record as “no binding” in [10] (2 mM EDTA) and “binds more weakly” in data set [10] (5 mM CaCl2, ++ in MgCl2, cleavage ++). Also, the activity on this sequence in [11] was found to be 0.04 min⁻¹.
